No constants are given. Whether binding was seen depends on the method and setting. For some of these results: Binding calls can cover weak binding; strength is not graded here. Sequences can lack the tags named with a protein.
How the values were obtained:
[1] = target: GATA3, purified recombinant; assay: native gel or EMSA; supershift of protein bound to the Cy5-labeled RHS5_12 DNA probe (ATTAGCAT Oct1 site); 0.6X buffer D, poly-dI/dC, BSA, on ice 15 min, 6% native PAGE in 0.5X TBE; both purified
[2] = target: Oct1 DNA binding domain (human) (UniProt P14859); assay: native gel or EMSA; supershift of protein bound to the control Octamer-Cy5 DNA probe; 0.6X buffer D, poly-dI/dC, BSA, on ice 15 min, 6% native PAGE in 0.5X TBE; both purified
[3] = target: GATA3, purified recombinant; assay: native gel or EMSA; supershift of protein bound to the Cy5-labeled RHS6 DNA probe; 0.6X buffer D, poly-dI/dC, BSA, on ice 15 min, 6% native PAGE in 0.5X TBE; both purified
[4] = target: Oct1 DNA binding domain (human) (UniProt P14859); assay: as above

Amino acid sequences for entries named in this document (tags omitted). A change or cut given only in a name is not applied to a line headed by its entry.
UniProt P14859: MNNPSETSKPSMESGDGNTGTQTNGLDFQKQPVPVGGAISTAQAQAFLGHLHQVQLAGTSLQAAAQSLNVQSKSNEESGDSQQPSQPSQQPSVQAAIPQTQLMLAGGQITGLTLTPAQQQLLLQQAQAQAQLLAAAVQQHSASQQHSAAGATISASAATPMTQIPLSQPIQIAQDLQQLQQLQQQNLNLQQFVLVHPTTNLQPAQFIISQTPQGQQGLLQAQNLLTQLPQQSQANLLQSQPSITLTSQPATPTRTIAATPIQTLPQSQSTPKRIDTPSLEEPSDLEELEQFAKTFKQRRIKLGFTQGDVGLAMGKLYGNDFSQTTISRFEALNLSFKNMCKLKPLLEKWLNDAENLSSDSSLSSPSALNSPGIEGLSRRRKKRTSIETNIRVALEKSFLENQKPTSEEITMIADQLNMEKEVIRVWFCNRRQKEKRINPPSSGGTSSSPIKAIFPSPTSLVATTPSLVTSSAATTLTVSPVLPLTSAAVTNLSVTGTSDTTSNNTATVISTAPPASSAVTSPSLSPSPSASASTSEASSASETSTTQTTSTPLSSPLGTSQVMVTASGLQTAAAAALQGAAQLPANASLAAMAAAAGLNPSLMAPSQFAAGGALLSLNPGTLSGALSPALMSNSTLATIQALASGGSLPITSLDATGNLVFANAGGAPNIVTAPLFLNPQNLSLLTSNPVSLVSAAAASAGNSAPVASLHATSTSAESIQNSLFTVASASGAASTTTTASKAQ

binding [1]: no binding | binding [2]: binds | binding [3]: no binding | binding [4]: binds
B1: OCA-B with C-terminal twinstrep and FLAG tags (protein, UniProt Q16633 1-256)
chain: MLWQKPTAPEQAPAPARPYQGVRVKEPVKELLRRKRGHASSGAAPAPTAVVLPHQPLATYTTVGPSCLDMEGSVSAVTEEAALCAGWLSQPTPATLQPLAPWTPYTEYVPHEAVSCPYSADMYVQPVCPSYTVVGPSSVLTYASPPLITNVTTRSSATPAVGPPLEGPEHQAPLTYFPWPQPLSTLPTSTLQYQPPAPALPGPQFVQLPISIPEPVLQDMEDPRRAASSLTIDKLLLEEEDSDAYALNHTLSVEGF
